Two molecules from PMC10681733 can be followed below.

By UniProt entry, the sequences of proteins in these tests, tags left out.
UniProt Q13547: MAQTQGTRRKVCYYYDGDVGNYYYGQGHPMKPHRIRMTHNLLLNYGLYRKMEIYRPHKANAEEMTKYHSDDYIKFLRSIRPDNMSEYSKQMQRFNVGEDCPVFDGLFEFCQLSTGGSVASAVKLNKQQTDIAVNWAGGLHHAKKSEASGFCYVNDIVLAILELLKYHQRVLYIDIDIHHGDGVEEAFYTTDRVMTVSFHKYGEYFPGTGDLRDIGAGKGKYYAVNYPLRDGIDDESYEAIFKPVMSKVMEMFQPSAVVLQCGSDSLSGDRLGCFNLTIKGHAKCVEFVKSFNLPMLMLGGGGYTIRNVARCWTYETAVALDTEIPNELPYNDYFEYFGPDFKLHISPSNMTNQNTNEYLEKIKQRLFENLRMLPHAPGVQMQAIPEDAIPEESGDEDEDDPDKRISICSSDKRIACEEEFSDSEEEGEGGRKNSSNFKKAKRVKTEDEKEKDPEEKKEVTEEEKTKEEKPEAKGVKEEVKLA

This test deals with C-terminally FLAG-tagged wildtype HDAC1 (UniProt Q13547). The test is described as follows: affinity purification with mass spectrometry; HDAC1-FLAG captured on crosslinked M2-FLAG beads from HAP1 whole cell extract (Hunt buffer: 20 mM Tris/HCl pH 8.0, 100 mM NaCl, 1 mM EDTA, 0.5% NP-40), overnight 4°C; control HDAC1 KO cells; on-bead digest, label-free quantification.

No constants are given. Whether binding was seen depends on the method and setting. Binding seen in cells or lysates may run through a third protein. Here binding means that the protein was enriched with, or labelled near, the bait; the list need not be complete.

B1: Genetic suppressor element 1 (GSE1) (protein, UniProt Q14687 1-1217)
chain: MKGMSHEPKSPSLGMLSTATRTTATVNPLTPSPLNGALVPSGSPATSSALSAQAAPSSSFAAALRKLAKQAEEPRGSSLSSESSPVSSPATNHSSPASTPKRVPMGPIIVPPGGHSVPSTPPVVTIAPTKTVNGVWRSESRQDAGSRSSSGGRERLIVEPPLPQEKAGGPAIPSHLLSTPYPFGLSPSSVVQDSRFPPLNLQRPVHHVVPPSTVTEDYLRSFRPYHTTDDLRMSSLPPLGLDPATAAAYYHPSYLAPHPFPHPAFRMDDSYCLSALRSPFYPIPTPGSLPPLHPSAMHLHLSGVRYPPELSHSSLAALHSERMSGLSAERLQMDEELRREREREREREREREADREREKEREREREKEREQEKEREREKERERELERQREQRAREKELLAAKALEPSFLPVAELHGLRGHATEERGKPSEQLTPTRAEKLKDAGLQAPKPVQHPLHPVPTPHHTVPSLISNHGIFSLPSSSAATALLIQRTNEEEKWLARQRRLRQEKEDRQSQVSEFRQQVLEQHLDMGRPPVPAEAEHRPESTTRPGPNRHEPGGRDPPQHFGGPPPLISPKPQLHAAPTALWNPVSLMDNTLETRRAESHSLHSHPAAFEPSRQAAVPLVKVERVFCPEKAEEGPRKREPAPLDKYQPPPPPPREGGSLEHQPFLPGPGPFLAELEKSTQTILGQQRASLPQAATFGELSGPLKPGSPYRPPVPRAPDPAYIYDEFLQQRRRLVSKLDLEERRRREAQEKGYYYDLDDSYDESDEEEVRAHLRCVAEQPPLKLDTSSEKLEFLQLFGLTTQQQKEELVAQKRRKRRRMLRERSPSPPTIQSKRQTPSPRLALSTRYSPDEMNNSPNFEEKKKFLTIFNLTHISAEKRKDKERLVEMLRAMKQKALSAAVADSLTNSPRDSPAVSLSEPATQQASLDVEKPVGVAASLSDIPKAAEPGKLEQVRPQELSRVQELAPASGEKARLSEAPGGKKSLSMLHYIRGAAPKDIPVPLSHSTNGKSKPWEPFVAEEFAHQFHESVLQSTQKALQKHKGSVAVLSAEQNHKVDTSVHYNIPELQSSSRAPPPQHNGQQEPPTARKGPPTQELDRDSEEEEEEDDEDGEDEEEVPKRKWQGIEAVFEAYQEHIEEQNLERQVLQTQCRRLEARHYSLSLTAEQLSHSVAELRSQKQKMVSERERLQAELDHLRKCLALPAMHWPRGYLKGYPR
For the molecule B1, the binding entry was “binds”.

B2: ZEB2 (protein, UniProt O60315 1-1214)
chain: MKQPIMADGPRCKRRKQANPRRKNVVNYDNVVDTGSETDEEDKLHIAEDDGIANPLDQETSPASVPNHESSPHVSQALLPREEEEDEIREGGVEHPWHNNEILQASVDGPEEMKEDYDTMGPEATIQTAINNGTVKNANCTSDFEEYFAKRKLEERDGHAVSIEEYLQRSDTAIIYPEAPEELSRLGTPEANGQEENDLPPGTPDAFAQLLTCPYCDRGYKRLTSLKEHIKYRHEKNEENFSCPLCSYTFAYRTQLERHMVTHKPGTDQHQMLTQGAGNRKFKCTECGKAFKYKHHLKEHLRIHSGEKPYECPNCKKRFSHSGSYSSHISSKKCIGLISVNGRMRNNIKTGSSPNSVSSSPTNSAITQLRNKLENGKPLSMSEQTGLLKIKTEPLDFNDYKVLMATHGFSGTSPFMNGGLGATSPLGVHPSAQSPMQHLGVGMEAPLLGFPTMNSNLSEVQKVLQIVDNTVSRQKMDCKAEEISKLKGYHMKDPCSQPEEQGVTSPNIPPVGLPVVSHNGATKSIIDYTLEKVNEAKACLQSLTTDSRRQISNIKKEKLRTLIDLVTDDKMIENHNISTPFSCQFCKESFPGPIPLHQHERYLCKMNEEIKAVLQPHENIVPNKAGVFVDNKALLLSSVLSEKGMTSPINPYKDHMSVLKAYYAMNMEPNSDELLKISIAVGLPQEFVKEWFEQRKVYQYSNSRSPSLERSSKPLAPNSNPPTKDSLLPRSPVKPMDSITSPSIAELHNSVTNCDPPLRLTKPSHFTNIKPVEKLDHSRSNTPSPLNLSSTSSKNSHSSSYTPNSFSSEELQAEPLDLSLPKQMKEPKSIIATKNKTKASSISLDHNSVSSSSENSDEPLNLTFIKKEFSNSNNLDNKSTNPVFSMNPFSAKPLYTALPPQSAFPPATFMPPVQTSIPGLRPYPGLDQMSFLPHMAYTYPTGAATFADMQQRRKYQRKQGFQGELLDGAQDYMSGLDDMTDSDSCLSRKKIKKTESGMYACDLCDKTFQKSSSLLRHKYEHTGKRPHQCQICKKAFKHKHHLIEHSRLHSGEKPYQCDKCGKRFSHSGSYSQHMNHRYSYCKREAEEREAAEREAREKGHLEPTELLMNRAYLQSITPQGYSDSEERESMPRDGESEKEHEKEGEDGYGKLGRQDGDEEFEEEEEESENKSMDTDPETIRDEEETGDHSMDDSSEDGKMETKSDHEEDNMEDGM
B2: the binding result is recorded as “binds”.
